The results in this text go back to article PMC3738497.

This experiment concerns the target T1, IRE1-3xmyc (murine IRE1α with a 3xmyc tag) (murine) (UniProt Q9Z2E3).
T1 sequence: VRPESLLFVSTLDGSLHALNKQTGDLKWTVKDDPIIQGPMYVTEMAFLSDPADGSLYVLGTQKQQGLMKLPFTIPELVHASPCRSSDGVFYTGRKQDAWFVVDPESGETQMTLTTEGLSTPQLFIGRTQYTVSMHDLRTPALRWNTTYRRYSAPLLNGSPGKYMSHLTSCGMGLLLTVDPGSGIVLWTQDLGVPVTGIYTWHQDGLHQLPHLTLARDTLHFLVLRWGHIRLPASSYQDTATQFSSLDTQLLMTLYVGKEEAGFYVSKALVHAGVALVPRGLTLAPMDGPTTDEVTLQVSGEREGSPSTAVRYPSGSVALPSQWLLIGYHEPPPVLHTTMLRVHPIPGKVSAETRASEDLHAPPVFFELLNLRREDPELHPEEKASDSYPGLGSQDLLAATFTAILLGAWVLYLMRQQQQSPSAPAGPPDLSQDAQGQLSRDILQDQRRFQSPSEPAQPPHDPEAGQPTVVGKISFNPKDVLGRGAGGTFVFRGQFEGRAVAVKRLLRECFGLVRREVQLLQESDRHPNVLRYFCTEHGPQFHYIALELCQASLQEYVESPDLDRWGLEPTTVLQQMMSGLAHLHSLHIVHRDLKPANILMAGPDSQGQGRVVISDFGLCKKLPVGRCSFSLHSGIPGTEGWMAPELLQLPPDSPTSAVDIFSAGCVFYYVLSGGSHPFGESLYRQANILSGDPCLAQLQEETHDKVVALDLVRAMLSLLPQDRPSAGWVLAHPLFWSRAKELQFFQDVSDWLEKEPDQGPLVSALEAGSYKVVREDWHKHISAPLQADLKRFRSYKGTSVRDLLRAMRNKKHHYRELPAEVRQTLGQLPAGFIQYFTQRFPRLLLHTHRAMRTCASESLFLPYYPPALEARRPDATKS
The experiment in a line: co-IP; 10.1 fibroblasts stably expressing myc-tagged IRE1 infected with MCMV-M50HA or MCMV-HAm41 at an MOI of 4; lysates 17 and 31 hpi; IRE1 precipitated with an anti-myc antibody; HA-tagged proteins detected by immunoblot. A general note: A western blot detects proteins with antibodies after separation by electrophoresis.

These are yes or no findings as the source states them, for the method shown. In cells and extracts the contact can be indirect. Binding can be weak; no strength is given. Sequences can lack the tags named with a protein.

For the substance “HA-tagged m41 expressed from MCMV-HAm41 (murine cytomegalovirus (MCMV))”, the binding result is listed as “no binding”. “HA-tagged M50 expressed from MCMV-M50HA (murine cytomegalovirus (MCMV))”: the binding result was “binds”.
